In the supplement of paper PMC3334620:
Over roughly 33,000 sequences, “E-score (-0.5 to 0.5)” has its median near -0.0034; the highest 2% begin near 0.25. The list shows a part of the results.

Target: T1, Yap3 (UniProt P38749)
T1 sequence: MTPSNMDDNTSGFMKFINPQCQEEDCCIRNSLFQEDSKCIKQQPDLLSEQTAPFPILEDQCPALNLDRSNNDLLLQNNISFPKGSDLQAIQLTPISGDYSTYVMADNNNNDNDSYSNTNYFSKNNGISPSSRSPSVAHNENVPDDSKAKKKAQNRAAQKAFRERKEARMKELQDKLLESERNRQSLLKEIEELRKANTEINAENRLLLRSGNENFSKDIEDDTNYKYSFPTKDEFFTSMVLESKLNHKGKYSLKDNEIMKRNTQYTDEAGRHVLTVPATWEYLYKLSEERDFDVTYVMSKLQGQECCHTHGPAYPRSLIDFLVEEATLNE
Assay: PBM E-score (8-mer binding enrichment) (E-score (-0.5 to 0.5)); higher = stronger / more preferred TF binding
Settings: protein concentration: 100 nM; construct: GST-full length
In short: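 Each ungapped eight-base word and its reverse complement, pooled, received an E-score from the Universal PBM Analysis Suite. Underlying scans, normalised with masliner, recorded fluorescent anti-GST bound to GST-tagged yeast transcription factors. These were applied at about 100-200 nM to universal all-10-mer Agilent arrays double-stranded by primer extension.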

Sequence | PBM E-score
ATATGTTG | 0.212
CAACGAAG | -0.144
AGGGCGGG | -0.21
AGACCAAT | 0.135
TACTTGAA | -0.00176
GCAGTACA | -0.0831
ATGGACAG | -0.079
ATATCTCC | 0.209
GTGAAGAA | 0.0364
GGAAATCA | 0.133
CCCCAAAG | -0.191
AGGTGCAA | 0.103
GTCGAGAA | 0.0532
ATCGCCAT | -0.0375
AAACGCGA | 0.218
GTCGCGTA | 0.165
ATCCGCTC | -0.182
ATTAAAAG | 0.0983
ATAAAGAC | 0.0209
ACTTATAG | -0.0355
AAGCGAGT | 0.156
ACACACAC | -0.0039

Reprinted at random: 6 entries already listed
Sequence | PBM E-score
ATAAAGAC | 0.0209
CCCCAAAG | -0.191
AAGCGAGT | 0.156
ACACACAC | -0.0039
AGGTGCAA | 0.103
ATGGACAG | -0.079

Going on with the list.

Sequence | PBM E-score
CGAGAATA | 0.244
GGATTACA | 0.0243
GAAGGGGC | -0.272
TGAGAACA | 0.149
CATCGGCA | -0.0615
CATCTTGG | -0.0384
AGTGATAT | 0.0783
CGAAGTAC | 0.0458
GACAGACA | 0.186
AACATGTC | 0.0511
ACCGCAAA | 0.109
CCCGGGAA | -0.11
AATTCTTA | 0.134
ATTCGGGA | -0.101
CCATCGTA | 0.0169
AGTTTATC | 0.141
CTTTGCCA | -0.0701
ATTGCGGC | -0.0199
CTGGAGGC | -0.203
ATTATCTG | 0.119
CCGCCGAG | -0.0306
ATCTTACG | 0.208

Sequence | PBM E-score
AAGTTTGG | 0.142
AATAGAGG | -0.08
ATTAACGA | 0.134
CGACAACG | 0.0404
AACTGCGG | -0.0201
AGAGTATG | -0.0564
CGATACAG | -0.141
CCAATTTC | 0.187
AAGATCGC | -0.0451
CCGGGAAG | -0.149
CAGTAGCC | -0.186
AAATCGCT | -0.121
CCAGTGGG | -0.32
ATAGAGTC | -0.181
ACCTTTGC | -0.038
GGTACTTA | -0.122
AGGTTAAC | 0.187
CATTGACG | 0.0656
CCGTAGCA | -0.0285
GAACGAAA | 0.148
ACACGTCC | -0.269
CCGTCCGA | -0.166

Sequence | PBM E-score
ACGACATG | 0.119
TGGTACCA | -0.00998
CAGCAATC | 0.0309
GGGTTAGA | -0.144
GATAGGAC | -0.176
CATCAACG | -0.00815
ACATCACT | 0.112
AAGAGTGT | -0.0373
CAAGAAGA | 0.08
CTATTCAC | 0.133
AAAACCCG | 0.116
TAATCCTA | 0.0153
AAGCGATC | 0.0482
AAACACAC | 0.179
CACGAACC | -0.0461
AACATGAT | 0.229
GGGGCTAC | -0.297
ACGGTACT | -0.0293
GGATAGAC | -0.114
CGCAAGAG | 0.0194
